Measured values published in article PMC12142464, “High-light-inducible proteins control associations between chlorophyll synthase and the Photosystem II biogenesis factor Ycf39” (Plant Physiology, 2025).
No constants are given. Whether binding was seen depends on the method and setting. For part of these data: Binding can be weak; no strength is given. For part of these data: In cells and extracts the contact can be indirect. For part of these data: Tags and fused reporters may be left off the sequences shown.

Experiments:
[1] = biological target: T1, His-tagged HliD (Synechocystis sp. PCC 6803) (UniProt P72932); assay: pull-down; His-HliD and His-^Δ11HliD isolated by nickel-affinity chromatography from HL-treated cells (2 h); ChlG, HliD and Ycf39 in the eluates by immunodetection after SDS-PAGE; WT control elution
T1 sequence: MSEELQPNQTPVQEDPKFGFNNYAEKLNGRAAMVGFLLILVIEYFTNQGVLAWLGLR

[2] = biological target: T2, Truncated His-tagged HliD lacking the first 11 residues (Synechocystis sp. PCC 6803) (UniProt P72932); assay: as above
T2 sequence: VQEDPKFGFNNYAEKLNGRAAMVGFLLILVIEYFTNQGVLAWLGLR

[3] = biological target: T3, High-light-inducible protein D (native) (Synechocystis sp. PCC 6803 (endogenous in Synechocystis)) (UniProt P72932); assay: negative-stain single-particle electron microscopy; complexes of the f.ChlG pulldown (f.chlG/ΔchlG/ΔhliC strain) eluted from CN gel bands, 2% uranyl acetate; 2D class averages fitted with AlphaFold3/MD models
T3 sequence: T1 sequence

[4] = biological target: T3, High-light-inducible protein D (native) (Synechocystis sp. PCC 6803 (endogenous in Synechocystis)); assay: native gel or EMSA; 2D BN/SDS-PAGE (4-14% BN) of solubilised membrane proteins from WT, ΔhliD, Δycf39, ΔhliC and his-^Δ11hliD cells grown under NL or shifted to HL (1-16 h); immunoblot with anti-ChlG and anti-Ycf39
[5] = biological target: T2, Truncated His-tagged HliD lacking the first 11 residues (Synechocystis sp. PCC 6803); assay: as above
[6] = biological target: T3, High-light-inducible protein D (native) (Synechocystis sp. PCC 6803 (endogenous in Synechocystis)); assay: co-IP; f.ChlG isolated with anti-FLAG resin from membranes solubilised with 1% n-dodecyl-β-D-maltoside and 1% glycol-diosgenin; eluate resolved by 2D CN (A8-35 amphipol)/SDS-PAGE, CBB stain; strains f.chlG/ΔchlG (HL 2 h), f.chlG/ΔchlG/ΔhliC (HL 2 h), f.chlG/ΔchlG/ΔhliC/Δycf39 (NL)

With Ycf39 (native) the binding [1] was “binds”, the binding [2] was “no binding” and the binding [3] was “binds”. For the same substance, the binding [4] was “binds”, the binding [5] was “no binding” and the binding [6] was “binds”.
